From doi:10.1101/2023.11.13.566796
Results are given in words; binding and its absence hold for the method and conditions named. In cells and extracts the contact can be indirect. A result given as binding can be weak or reduced; the word gives no strength. For part of these data: Sequences can lack the tags named with a protein. Values belong to the molecule of their own block, whether it stands above or below them.

Amino acid sequences for entries named in this document (tags omitted).
UniProt P49024: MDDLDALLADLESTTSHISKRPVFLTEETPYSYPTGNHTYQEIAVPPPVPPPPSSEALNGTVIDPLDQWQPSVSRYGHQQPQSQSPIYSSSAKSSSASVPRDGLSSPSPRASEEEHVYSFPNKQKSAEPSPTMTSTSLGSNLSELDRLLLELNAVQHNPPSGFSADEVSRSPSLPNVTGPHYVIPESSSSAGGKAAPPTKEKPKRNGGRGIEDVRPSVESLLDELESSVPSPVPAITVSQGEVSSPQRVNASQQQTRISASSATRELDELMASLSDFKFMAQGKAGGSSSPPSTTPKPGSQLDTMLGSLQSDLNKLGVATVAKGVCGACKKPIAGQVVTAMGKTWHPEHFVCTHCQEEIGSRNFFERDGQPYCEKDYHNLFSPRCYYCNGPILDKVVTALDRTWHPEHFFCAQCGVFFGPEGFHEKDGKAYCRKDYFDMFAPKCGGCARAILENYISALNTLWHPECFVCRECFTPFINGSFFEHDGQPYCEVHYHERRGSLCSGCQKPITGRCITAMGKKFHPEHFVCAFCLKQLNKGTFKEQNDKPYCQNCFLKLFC

Key:
[1] = target: GFP-paxillin (UniProt P49024); experiment: co-IP
[2] = target: T1, FLAG-BNIP-2 (human) (UniProt Q12982); experiment: co-IP
T1 sequence: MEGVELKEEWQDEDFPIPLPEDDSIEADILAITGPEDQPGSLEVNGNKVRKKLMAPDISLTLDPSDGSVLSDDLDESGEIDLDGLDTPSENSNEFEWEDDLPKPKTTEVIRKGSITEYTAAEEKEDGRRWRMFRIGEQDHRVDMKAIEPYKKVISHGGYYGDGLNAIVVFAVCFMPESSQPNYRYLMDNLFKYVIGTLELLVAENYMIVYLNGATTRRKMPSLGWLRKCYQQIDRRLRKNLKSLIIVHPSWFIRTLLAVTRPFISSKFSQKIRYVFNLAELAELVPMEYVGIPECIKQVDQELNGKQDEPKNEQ

[3] = target: BNIP-2 (endogenous, H9c2) (rat (endogenous in H9c2)); experiment: proximity ligation

binding [1]: binds
Molecule: mCherry-vinculin (from UniProt P18206-2)

binding [2]: binds
Molecule: GFP-vinculin (from UniProt P18206-2)

binding [3]: binds
B1: vinculin (endogenous, H9c2) (protein, UniProt P85972 1-1066)
chain: MPVFHTRTIESILEPVAQQISHLVIMHEEGEVDGKAIPDLTAPVAAVQAAVSNLVRVGKETVQTTEDQILKRDMPPAFIKVENACTKLVQAAQMLQSDPYSVPARDYLIDGSRGILSGTSDLLLTFDEAEVRKIIRVCKGILEYLTVAEVVETMEDLVTYTKNLGPGMTKMAKMIDERQQELTHQEHRVMLVNSMNTVKELLPVLISAMKIFVTTKNSKNQGIEEALKNRNFTVGKMSAEINEIIRVLQLTSWDEDAWASKDTEAMKRALASIDSKLNQAKGWLRDPNASPGDAGEQAIRQILDEAGKVGELCAGKERREILGTCKMLGQMTDQVADLRARGQGASPVAMQKAQQVSQGLDVLTAKVENAARKLEAMTNSKQSIAKKIDAAQNWLADPNGGPEGEEQIRGALAEARKIAELCDDPKERDDILRSLGEIAALTSKLGDLRRQGKGDSPEARALAKQVATALQNLQTKTNRAVANSRPAKAAVHLEGKIEQAQRWIDNPTVDDRGVGQAAIRGLVAEGHRLANVMMGPYRQDLLAKCDRVDQLAAQLADLAARGEGESPQARALASQLQDSLKDLKTQMQEAMTQEVSDVFSDTTTPIKLLAVAATAPPDAPNREEVFDERAANFENHSGRLGATAEKAAAVGAANKSTVEGIQASVKTARELTPQVISAARILLRNPGNQAAYEHFETMKNQWIDNVEKMTGLVDEAIDTKSLLDASEEAIKKDLDKCKVAMANIQPQMLVAGATSIARRANRILLVAKREVENSEDPKFREAVKAASDELSKTISPMVMDAKAVAGNISDPGLQKSFLDSGYRILGAVAKVREAFQPQEPDFPPPPPDLEQLRLTDELAPPKPPLPEGEVPPPRPPPPEEKDEEFPEQKAGEVINQPMMMAARQLHDEARKWSSKGNDIIAAAKRMALLMAEMSRLVRGGSGTKRALIQCAKDIAKASDEVTRLAKEVAKQCTDKRIRTNLLQVCERIPTISTQLKILSTVKATMLGRTNISDEESEQATEMLVHNAQNLMQSVKETVREAEAASIKIRTDAGFTLRWVRKTPWYQ
